Experimental data published in patent US5525590A, “Cyclosporins and their use as pharmaceuticals” (Sandoz Ltd., priority 1987, dated 1996).
Part of at least one peptide drawing is inferred or uncertain, most often the ends.

Columns and labels:
[1] = test system: Plasmodium berghei (strain NK 65); test: Anti-malaria test according to L. Rane; type: in vivo, Mice (OFl:male); details: mice, s.c.
[2] = test system: mouse (Balb/c) spleen cells; test: Mixed lymphocyte reaction (example 4.3); type: cell-based
mouse-spleen lymphocytes = test: Lymphocyte stimulation test, concanavalin A (example 4.2); type: cell-based; details: concanavalin A stimulated

Structure (SMILES) | ED50 in the method of example 6 (anti-malaria test) [1] | IC50, method of example 4.3 (mixed lymphocyte reaction) [2] | IC50, method of example 4.2 (lymphocyte stimulation test) (mouse-spleen lymphocytes)
CC[C@@H]1NC(=O)[C@H]([C@H](O)[C@H](C)CCCCOC)N(C)C(=O)[C@H](C(C)C)N(C)C(=O)[C@H](CC(C)C)N(C)C(=O)[C@H](CC(C)C)N(C)C(=O)[C@@H](C)NC(=O)[C@H](C)NC(=O)[C@H](CC(C)C)N(C)C(=O)[C@H](C(C)C)NC(=O)[C@H](CC(C)C)N(C)C(=O)CN(C)C1=O [Cyclosporin 4.7] | ca. 15.0 mg/kg |  | 
COCCCC[C@@H](C)[C@@H](O)[C@H]1C(=O)N[C@@H]([C@@H](C)O)C(=O)N(C)CC(=O)N(C)[C@@H](CC(C)C)C(=O)N[C@@H](C(C)C)C(=O)N(C)[C@@H](CC(C)C)C(=O)N[C@@H](C)C(=O)N[C@H](C)C(=O)N(C)[C@@H](CC(C)C)C(=O)N(C)[C@@H](CC(C)C)C(=O)N(C)[C@@H](C(C)C)C(=O)N1C [Cyclosporin 4.8] |  | 90 ng/mL | 160 ng/mL
C=C/C=C\C[C@@H](C)[C@@H](O)[C@H]1C(=O)N[C@@H]([C@@H](C)O)C(=O)N(C)CC(=O)N(C)[C@@H](CC(C)C)C(=O)N[C@@H](C(C)C)C(=O)N(C)[C@@H](CC(C)C)C(=O)N[C@@H](C)C(=O)N[C@H](C)C(=O)N(C)[C@@H](CC(C)C)C(=O)N(C)[C@@H](CC(C)C)C(=O)N(C)[C@@H](C(C)C)C(=O)N1C [Cyclosporin 6.4] |  | < 8 ng/mL | < 8 ng/mL
CCCCC[C@@H](C)[C@@H](O)[C@H]1C(=O)N[C@@H]([C@@H](C)O)C(=O)N(C)CC(=O)N(C)[C@@H](CC(C)C)C(=O)N[C@@H](C(C)C)C(=O)N(C)[C@@H](CC(C)C)C(=O)N[C@@H](C)C(=O)N[C@H](C)C(=O)N(C)[C@@H](CC(C)C)C(=O)N(C)[C@@H](CC(C)C)C(=O)N(C)[C@@H](C(C)C)C(=O)N1C [Cyclosporin 6.15] |  | < 8 ng/mL | < 8 ng/mL
